Drawing on the odorant receptor screen of Mainland et al. (2015), this text covers odorant receptor activation for 13 compounds.

Several values for one entry are separate records, joined by “and”; a condition that tells them apart may be missing. Equal entries are not always repeated. The list shows a part of the results. Single wells; the ratio to wells without odorant was worked out here, and repeats agree poorly.

Test in all cases: odorant receptor activation (CRE luciferase / Renilla) (fold of no-odor wells); higher = more activation
What all share (conditions): 100 µM

The subject of assay [1] is OR6Q1 clone 1231.
Assay [2] concerns OR6S1 T42I/V156I/R237H clone 1271.
Assay [3] has as its system OR6T1 clone 1188.
Assay [4] relates to OR6V1 clone 1730.
The test system of assay [5] is OR6X1 clone 1239.
Assay [6] deals with OR6Y1 V252I clone 1025.
For assay [7], the system named is OR7A10 clone 1104.
Assay [8] concerns OR7A17 clone 1300.
For assay [9], the system named is OR7A5 clone 1469.
The subject of assay [10] is OR7C1 clone 1299.

`CC(C)CCC(=O)O` [4-methylvaleric acid]: the odorant receptor activation came out at 1 in [1]; 1.04 in assay [2]; 1.56 in [3]; 0.825 in assay [4]; 0.805 in assay [5]; 1.75 in [6]. Further, the odorant receptor activation in [7] was found to be 4.17; in assay [8] it was 1.23; in assay [9], 1.09; in assay [10], 1.16.
On to `COc1cc(C)ccc1O` [2-methoxy-4-methylphenol], for which the odorant receptor activation is 1.18 in [1]; 0.677 in assay [2]; 1.08 in assay [3]; 0.789 in assay [4]; 0.898 in assay [5]; 1.82 in assay [6]. The odorant receptor activation was 3.22 in assay [7], 1.16 in assay [8], 0.836 in assay [9] and 1 in assay [10].
For the compound `CCCCCCCC=O` [octyl aldehyde], the odorant receptor activation in [1] stood at 0.836; in assay [2], 1; in assay [3], 1.02; in assay [4] it was 0.915; in [5] it was 0.866; in [6], 1.2. For the same compound, the odorant receptor activation in assay [7] was 1.2; in assay [8] it was 1.4; in assay [9] it was 1.02; in assay [10] it was 1.58.
As for `c1cnccn1` [pyrazine], the odorant receptor activation amounted to 0.93 in assay [1]; 0.76 in assay [2]; 0.817 in [3]; 0.739 in assay [4]; 0.821 in assay [5]; 1.06 in [6]. The odorant receptor activation in assay [7] is 1.25; in assay [8], 1.06; in assay [9], 0.778; in assay [10], 0.995.
For `CCCCCCCCOC(C)=O` [octyl acetate], the odorant receptor activation was 0.959 in [1]; 1.18 in [2]; 0.872 in assay [3]; 0.713 in [4]; 0.874 in assay [5]; 0.959 in assay [6]. The odorant receptor activation turned out to be 1.06 in [7], 1.41 in assay [8], 0.801 in assay [9] and 1.59 in assay [10].
With `O=C1CCCCCCCCCCCCCCO1` [pentadecalactone], the odorant receptor activation in assay [1] turned out to be 0.907; in assay [2], 0.645; in [3] it was 0.651; in [4] it was 0.758; in [5], 0.942; in assay [6] it was 0.919. For the same compound, the odorant receptor activation in assay [7] was 1.26; in [8], 0.894; in [9] it was 0.771; in [10] it was 0.975.
For the compound `CC12CCC(C1)C(C)(C)C2=O` (stereo not given) [fenchone], the odorant receptor activation in assay [1] came out at 1.1; in assay [2], 1.05; in assay [3] it was 1.19; in assay [4] it was 0.616; in assay [5], 1.1; in assay [6], 1.07. For the same compound, the odorant receptor activation in assay [7] turned out to be 0.929; in assay [8] it was 0.969; in assay [9], 1.21; in [10], 1.16.
Turning to `COc1cc(C=O)ccc1O` [vanillin], the odorant receptor activation in [1] stood at 1.2; in assay [2] it was 1.21; in assay [3] it was 0.791; in assay [4], 0.644; in assay [5], 1.17; in assay [6], 0.868. For the same compound, the odorant receptor activation in assay [7] was 1.38; in [8], 1.13; in [9], 1.1; in [10], 1.2.
In the case of `CC(=O)C(C)=O` [diacetyl], the odorant receptor activation in assay [1] amounted to 1.11; in [2], 1.32; in [3], 1.26; in assay [4], 0.875; in assay [5], 0.832; in [6], 1.43. Moreover, the odorant receptor activation in assay [7] was determined as 0.957; in assay [8], 0.981; in assay [9], 1.57; in assay [10], 1.12.
For the compound `C=C(C)C1CC=C(C)C(=O)C1` (stereo not given) [r-carvone], the odorant receptor activation in [1] came to 1.11; in assay [2] it was 0.884; in assay [3], 0.941; in assay [4], 0.672; in [5], 0.821; in assay [6] it was 1.23. For the same compound, the odorant receptor activation in assay [7] amounted to 1.08; in [8], 0.893; in [9] it was 0.927; in [10] it was 0.781.
As to `CCCCCCCCC=O` [nonyl aldehyde], the odorant receptor activation in [1] stood at 0.732; in [2], 1.08; in assay [3] it was 0.981; in assay [4] it was 0.834; in assay [5], 1.05; in assay [6], 1.16. Also, the odorant receptor activation came to 1.08 in assay [7], 1.17 in assay [8], 1.01 in assay [9] and 1.09 in assay [10].
For `CCCCCCOC(=O)CCC` [hexyl butyrate], the odorant receptor activation in [1] was 1.05; in assay [2], 1.07 and 0.85; in [3] it was 0.966; in assay [4], 0.801; in [5], 0.98; in assay [6] it was 0.98. Moreover, the odorant receptor activation in assay [7] is 0.99; in assay [8], 1.02 and 1.38; in [9], 1.1 and 0.811; in [10], 1.31 and 0.962.
With `C=CCc1ccc(OC(C)=O)c(OC)c1` [eugenol acetate], the odorant receptor activation in [1] worked out at 1.89; in [2], 1.69; in assay [3], 2.47; in assay [4], 2.17; in [5], 1.52; in [6], 1.92. Besides, the odorant receptor activation was determined as 1.49 in assay [7], 1.13 in [8], 2.31 in assay [9] and 1.68 in assay [10].
